PubChem BioAssay AID1224828 – NIAID – 2016

- Screen: 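Knock-downs that increase or decrease LPS-induced p65 nuclear translocation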 (primary screen)
- Cells: mouse RAW264.7 G9 macrophage reporter cells (GFP-p65, Tnf promoter-mCherry)
- Reagents: siRNA pool against mouse genes, 100 nM
- Time to read-out: 2 days siRNA transfection, then 40 min LPS before fixation
- Treatment: LPS (Salmonella minnesota R595) at 10 ng/ml
- Measured: 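Imaged p65 nuclear translocation ratio, normalised to the plate median, converted to robust z-scores and averaged across two replicates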
- Reading the numbers: p65 translocation robust z-score: higher = more nuclear NF-kappaB p65 after LPS than the plate median; nuclear/cytoplasmic p65 ratio: higher = more nuclear NF-kappaB p65
- Call rule: 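Active if robust z is above 3.3 (negative regulators) or below -1.56, the Tlr4 control median (positive regulators); activity score 50 or more; control wells not called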
- Meaning of the calls: active = hit (p65 shift raised or lowered); inactive = no clear change
In all, the deposit lists about 17,000 reagents; this is an unselected part. In the full data, 762 (4.5%) are marked active. 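Active calls include both raised and lowered p65 entry, mostly lowered; wells with fewer than 50 cells lack a z-score.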 The raw values are shown without normalisation. The numbers tell different reagents against one gene apart.

Or11g1 — nuclear/cytoplasmic p65 ratio, rep 1 = 1.29; nuclear/cytoplasmic p65 ratio, rep 2 = 1.1; low cell count flag = fewer than 50 cells per well; well left out of scoring; Outcome = inactive
Efna4 — p65 translocation robust z-score = 0; nuclear/cytoplasmic p65 ratio, rep 1 = 1.48; nuclear/cytoplasmic p65 ratio, rep 2 = 1.35; low cell count flag = enough cells to score; Outcome = inactive
Grik4 — p65 translocation robust z-score = 0.68; nuclear/cytoplasmic p65 ratio, rep 1 = 1.5; nuclear/cytoplasmic p65 ratio, rep 2 = 1.48; low cell count flag = enough cells to score; Outcome = inactive
Eif4ebp1 — p65 translocation robust z-score = -1.57; nuclear/cytoplasmic p65 ratio, rep 1 = 1.26; nuclear/cytoplasmic p65 ratio, rep 2 = 1.16; low cell count flag = enough cells to score; Outcome = active
Ddx3x #1 — p65 translocation robust z-score = -0.39; nuclear/cytoplasmic p65 ratio, rep 1 = 1.47; nuclear/cytoplasmic p65 ratio, rep 2 = 1.54; low cell count flag = enough cells to score; Outcome = inactive
Ddx3x #2 — p65 translocation robust z-score = 2.91; nuclear/cytoplasmic p65 ratio, rep 1 = 1.95; nuclear/cytoplasmic p65 ratio, rep 2 = 1.93; low cell count flag = enough cells to score; Outcome = inactive
Gypc — nuclear/cytoplasmic p65 ratio, rep 1 = 1.39; nuclear/cytoplasmic p65 ratio, rep 2 = 1.09; low cell count flag = fewer than 50 cells per well; well left out of scoring; Outcome = inactive
Tcl1b5 — nuclear/cytoplasmic p65 ratio, rep 1 = 1.12; nuclear/cytoplasmic p65 ratio, rep 2 = 1.08; low cell count flag = fewer than 50 cells per well; well left out of scoring; Outcome = inactive
Ccdc47 — nuclear/cytoplasmic p65 ratio, rep 1 = 1.37; nuclear/cytoplasmic p65 ratio, rep 2 = 1.41; low cell count flag = fewer than 50 cells per well; well left out of scoring; Outcome = inactive
Ncoa5 — p65 translocation robust z-score = -1.18; nuclear/cytoplasmic p65 ratio, rep 1 = 1.25; nuclear/cytoplasmic p65 ratio, rep 2 = 1.23; low cell count flag = enough cells to score; Outcome = inactive
Polr2c — p65 translocation robust z-score = 2.66; nuclear/cytoplasmic p65 ratio, rep 1 = 1.7; nuclear/cytoplasmic p65 ratio, rep 2 = 1.53; low cell count flag = enough cells to score; Outcome = inactive
Pik3ip1 — p65 translocation robust z-score = -1.06; nuclear/cytoplasmic p65 ratio, rep 1 = 1.35; low cell count flag = enough cells to score; Outcome = inactive
Pgm3 — p65 translocation robust z-score = -0.09; nuclear/cytoplasmic p65 ratio, rep 1 = 1.4; nuclear/cytoplasmic p65 ratio, rep 2 = 1.26; low cell count flag = enough cells to score; Outcome = inactive

3 consecutive reagents from above, quoted:
Or11g1 — nuclear/cytoplasmic p65 ratio, rep 1 = 1.29; nuclear/cytoplasmic p65 ratio, rep 2 = 1.1; low cell count flag = fewer than 50 cells per well; well left out of scoring; Outcome = inactive
Efna4 — p65 translocation robust z-score = 0; nuclear/cytoplasmic p65 ratio, rep 1 = 1.48; nuclear/cytoplasmic p65 ratio, rep 2 = 1.35; low cell count flag = enough cells to score; Outcome = inactive
Grik4 — p65 translocation robust z-score = 0.68; nuclear/cytoplasmic p65 ratio, rep 1 = 1.5; nuclear/cytoplasmic p65 ratio, rep 2 = 1.48; low cell count flag = enough cells to score; Outcome = inactive

The listing continues.
Cfap100 — nuclear/cytoplasmic p65 ratio, rep 1 = 1.08; nuclear/cytoplasmic p65 ratio, rep 2 = 1.33; low cell count flag = fewer than 50 cells per well; well left out of scoring; Outcome = inactive
Pknox1 — p65 translocation robust z-score = -0.83; nuclear/cytoplasmic p65 ratio, rep 1 = 1.37; nuclear/cytoplasmic p65 ratio, rep 2 = 1.31; low cell count flag = enough cells to score; Outcome = inactive
Ugt1a6a — nuclear/cytoplasmic p65 ratio, rep 1 = 0; nuclear/cytoplasmic p65 ratio, rep 2 = 1.27; low cell count flag = fewer than 50 cells per well; well left out of scoring; Outcome = inactive
Sptbn4 — p65 translocation robust z-score = 0.9; nuclear/cytoplasmic p65 ratio, rep 1 = 1.6; nuclear/cytoplasmic p65 ratio, rep 2 = 1.28; low cell count flag = enough cells to score; Outcome = inactive
Camkk2 — p65 translocation robust z-score = -0.43; nuclear/cytoplasmic p65 ratio, rep 1 = 1.61; nuclear/cytoplasmic p65 ratio, rep 2 = 1.34; low cell count flag = enough cells to score; Outcome = inactive
Nln — p65 translocation robust z-score = -0.75; nuclear/cytoplasmic p65 ratio, rep 1 = 1.39; nuclear/cytoplasmic p65 ratio, rep 2 = 1.28; low cell count flag = enough cells to score; Outcome = inactive
Msr1 — p65 translocation robust z-score = -0.52; nuclear/cytoplasmic p65 ratio, rep 1 = 1.37; nuclear/cytoplasmic p65 ratio, rep 2 = 1.21; low cell count flag = enough cells to score; Outcome = inactive
Nme4 — p65 translocation robust z-score = 0.1; nuclear/cytoplasmic p65 ratio, rep 1 = 1.52; nuclear/cytoplasmic p65 ratio, rep 2 = 1.39; low cell count flag = enough cells to score; Outcome = inactive
